The structures appear in SMILES notation.

The data set can be described thus: rDCS dissolution rate analysis (kdiss vs kperm) by Rosenberger et al. The following applies: Excel template. From the text: Rosenberger et al. published an equation for kdiss based on the intrinsic dissolution rate (IDR) rather than CS (Equation (9)). Applying the hparticle assumption for larger particles with r0 ≥ 30 µm (hparticle = 30 µm) results in Equation (10). (9) kdiss=kIDR·IDR=3·hdisk/r0^2·ρ·IDR(r0<30 µm, hparticle=r0) (10) kdiss=kIDR·IDR=3·hdisk/r0·hparticle·ρ·IDR(r0≥30 µm, hparticle=30 µm)
In these equations kIDR is the IDR rate constant, which accounts for the solvent kinematic viscosity, rotational speed of the compressed disk, diffusion coefficient, particle size and API density. Therefore, kIDR corrects for differences in experimental conditions that influence the measured IDR value. The ABL thickness of the rotating disk (hdisk) can be estimated according to Equation (11):(11) hdisk=4.98·ν^1/6·D^1/3·RPM^−1/2 where ν is the solvent kinematic viscosity and the stirring rate is expressed as revolutions per minute (RPM). When kdiss is based on the IDR, two modified Dn equations result (Equations (12) and (13)):(12) Dn=3·hdisk/r0^2·ρ·IDR·Tsi(r0<30 µm, hparticle=r0) (13) Dn=3·hdisk/r0·hparticle·ρ·IDR·Tsi(r0≥30 µm, hparticle=30 µm)
The rDCS dissolution rate analysis was conducted according to Rosenberger et al.. For this, kdiss based on the IDR for a standard particle size of 100 µm was calculated (Equation (15)) and compared to kperm (Equation (10)). […]

For `C[C@@H](c1ncncc1F)[C@](O)(Cn1cncn1)c1ccc(F)cc1F` [Voriconazole, voriconazole], the “kIDR for r = 100 µm” value worked out at 0.0892 mg/cm2.
